Data on 1 molecule can be found in publication doi:10.1101/399980.

Protein sequences, listed by entry. Tags and fused reporters are not part of them.
UniProt P46937: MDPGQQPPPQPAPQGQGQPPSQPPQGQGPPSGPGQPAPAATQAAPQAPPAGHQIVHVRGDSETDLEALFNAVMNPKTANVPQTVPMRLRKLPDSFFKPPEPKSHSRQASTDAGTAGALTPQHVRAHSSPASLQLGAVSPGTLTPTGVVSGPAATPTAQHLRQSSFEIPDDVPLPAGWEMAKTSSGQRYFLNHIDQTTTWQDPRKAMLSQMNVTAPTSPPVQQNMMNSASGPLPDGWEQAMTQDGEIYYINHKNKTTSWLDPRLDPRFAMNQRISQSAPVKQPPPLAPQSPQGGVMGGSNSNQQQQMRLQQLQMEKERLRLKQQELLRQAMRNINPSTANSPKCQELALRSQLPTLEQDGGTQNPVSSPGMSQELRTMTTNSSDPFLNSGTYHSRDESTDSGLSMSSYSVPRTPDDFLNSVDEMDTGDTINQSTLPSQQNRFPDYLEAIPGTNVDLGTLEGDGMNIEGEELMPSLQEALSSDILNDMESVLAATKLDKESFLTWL

For assay [1], the target named is YAP phosphorylated at S127 (pYAP-S127) (human (endogenous in NTERT)) (UniProt P46937). The assay is described as follows: co-IP.
The target in assay [2] is Yes-associated protein (YAP) (human (endogenous in NTERT)) (UniProt P46937). The assay is described as follows: co-IP.

These are yes or no findings as the source states them, for the method shown. Binding seen in cells or lysates may run through a third protein. Some results given as binding are weak or reduced against the parent protein; the word gives no strength.

B1: Desmoglein-3 (Dsg3) (protein, UniProt P32926 50-999)
chain: EWVKFAKPCREGEDNSKRNPIAKITSDYQATQKITYRISGVGIDQPPFGIFVVDKNTGDINITAIVDREETPSFLITCRALNAQGLDVEKPLILTVKILDINDNPPVFSQQIFMGEIEENSASNSLVMILNATDADEPNHLNSKIAFKIVSQEPAGTPMFLLSRNTGEVRTLTNSLDREQASSYRLVVSGADKDGEGLSTQCECNIKVKDVNDNFPMFRDSQYSARIEENILSSELLRFQVTDLDEEYTDNWLAVYFFTSGNEGNWFEIQTDPRTNEGILKVVKALDYEQLQSVKLSIAVKNKAEFHQSVISRYRVQSTPVTIQVINVREGIAFRPASKTFTVQKGISSKKLVDYILGTYQAIDEDTNKAASNVKYVMGRNDGGYLMIDSKTAEIKFVKNMNRDSTFIVNKTITAEVLAIDEYTGKTSTGTVYVRVPDFNDNCPTAVLEKDAVCSSSPSVVVSARTLNNRYTGPYTFALEDQPVKLPAVWSITTLNATSALLRAQEQIPPGVYHISLVLTDSQNNRCEMPRSLTLEVCQCDNRGICGTSYPTTSPGTRYGRPHSGRLGPAAIGLLLLGLLLLLLAPLLLLTCDCGAGSTGGVTGGFIPVPDGSEGTIHQWGIEGAHPEDKEITNICVPPVTANGADFMESSEVCTNTYARGTAVEGTSGMEMTTKLGAATESGGAAGFATGTVSGAASGFGAATGVGICSSGQSGTMRTRHSTGGTNKDYADGAISMNFLDSYFSQKAFACAEEDDGQEANDCLLIYDNEGADATGSPVGSVGCCSFIADDLDDSFLDSLGPKFKKLAEISLGVDGEGKEVQPPSKDSGYGIESCGHPIEVQQTGFVKCQTLSGSQGASALSTSGSVQPAVSIPDPLQHGNYLVTETYSASGSLVQPSTAGFDPLLTQNVIVTERVICPISSVPGNLAGPTQLRGSHTMLCTEDPCSRLI
As to B1, the binding result in assay [1] and in assay [2] was “binds” throughout.
